{
  "source": "patent US20240082431A1",
  "about": "“METALLOHYDROPORPHYRINS FOR PHOTOACOUSTIC IMAGING” (NIRvana Sciences, Inc., priority 2021, published 2024)",
  "test": "Photoacoustic imaging of dyes in agar phantoms (VEVO LAZR 2100, PA scanning mode 680-900 nm)",
  "format": "physicochemical",
  "conditions": "agar phantom, at the indicated wavelength, 63 μM B107, 50 μM ICG in DMF",
  "protocol": "Indocyanine Green (ICG), was obtained from Sigma-Aldrich (Catalogue No. I2633; Sigma-Aldrich Corp., St. Louis, Missouri, United States of America). The nickel bacteriochlorin B107 was prepared as described in Sun et al., 2013 and Chen et al, 2012. Each dye was dissolved in N,N-dimethylformamide (DMF) at the desired concentrations prior to the imaging experiments. Molds for preparing agar phantoms were typically 90 mm diameter glass Petri dishes.\nA highly purified agar powder (Catalogue No. A7921; Sigma-Aldrich Corp., St. Louis, Missouri, United States of America) was dissolved in water (Reagent Grade, Type I) to a final concentration of 2.0% and heated to the melting temperature of 95° C. in a microwave oven. […] The bottle containing agar was held at 75-85° C. for 1-3 hours using a standard hot plate and a double boiler to avoid scorching (which causes a detectable increase in the absorption coefficient). This waiting period at an elevated temperature allows the slow release of air bubbles and produces an agar solution with negligible absorption and very low turbidity. […]\nPhotoacoustic imaging was performed using a VEVO® LAZR^2100 imaging system (VisualSonics, Inc., Toronto, Ontario, Canada) equipped with software version 1.7.2. […] The tubing and its associated image regions were isolated by ultrasound and PA signals for PA intensity quantitation. […]",
  "note": "A unit is not stated for every read-out.",
  "data": [
    {"smiles": "CC1(C)C(/C=C/C=C/C=C/C=C2\\N(CCCCS(=O)(=O)O)c3ccc4ccccc4c3C2(C)C)=[N+](CCCCS(=O)(=O)[O-])c2ccc3ccccc3c21", "note": "[ICG, Indocyanine Green]", "values": [
      {"measurement": "PAI signal intensity", "setting": "depth 3 mm", "value": 0.72},
      {"measurement": "PAI signal intensity", "setting": "depth 6 mm", "value": 0.38}
    ]}
  ]
}
